Assay results: paper PMC4145799
No constants are given. Whether binding was seen depends on the method and setting. Some entries that bind do so weakly or less than the wild type.

Chains of the proteins cited; added tags and fusions are not shown.
UniProt P0A9H3: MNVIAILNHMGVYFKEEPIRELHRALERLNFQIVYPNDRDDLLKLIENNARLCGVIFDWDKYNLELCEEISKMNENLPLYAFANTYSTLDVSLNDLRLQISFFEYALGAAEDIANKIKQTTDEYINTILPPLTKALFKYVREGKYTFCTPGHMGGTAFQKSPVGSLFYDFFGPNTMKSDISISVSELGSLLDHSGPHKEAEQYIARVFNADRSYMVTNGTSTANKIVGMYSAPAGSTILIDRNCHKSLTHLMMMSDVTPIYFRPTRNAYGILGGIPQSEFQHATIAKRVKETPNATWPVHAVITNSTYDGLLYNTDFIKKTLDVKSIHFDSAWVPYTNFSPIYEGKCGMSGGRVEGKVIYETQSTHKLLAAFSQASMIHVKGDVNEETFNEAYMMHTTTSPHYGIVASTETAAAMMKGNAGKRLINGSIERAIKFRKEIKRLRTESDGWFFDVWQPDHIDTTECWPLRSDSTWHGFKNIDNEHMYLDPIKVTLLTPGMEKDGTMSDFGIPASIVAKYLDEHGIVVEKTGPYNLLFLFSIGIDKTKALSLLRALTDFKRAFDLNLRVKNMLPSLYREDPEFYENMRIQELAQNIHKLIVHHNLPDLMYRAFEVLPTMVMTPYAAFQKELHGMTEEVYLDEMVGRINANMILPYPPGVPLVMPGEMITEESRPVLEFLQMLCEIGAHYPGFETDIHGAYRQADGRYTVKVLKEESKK
UniProt P31473: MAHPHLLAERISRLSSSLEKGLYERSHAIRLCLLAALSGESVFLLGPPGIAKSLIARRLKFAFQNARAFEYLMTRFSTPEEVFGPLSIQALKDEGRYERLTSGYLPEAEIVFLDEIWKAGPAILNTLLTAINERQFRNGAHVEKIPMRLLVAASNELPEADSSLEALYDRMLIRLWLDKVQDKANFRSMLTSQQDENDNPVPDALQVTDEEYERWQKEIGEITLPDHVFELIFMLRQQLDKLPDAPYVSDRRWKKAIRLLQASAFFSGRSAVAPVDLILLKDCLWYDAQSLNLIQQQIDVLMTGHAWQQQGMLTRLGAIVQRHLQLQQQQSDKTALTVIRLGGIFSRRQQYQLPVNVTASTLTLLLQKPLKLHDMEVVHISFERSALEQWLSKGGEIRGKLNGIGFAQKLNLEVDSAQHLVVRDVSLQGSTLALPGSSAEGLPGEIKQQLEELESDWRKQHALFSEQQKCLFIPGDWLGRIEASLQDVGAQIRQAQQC

Target: inducible lysine decarboxylase LdcI (Escherichia coli) (UniProt P0A9H3)
Test: cryo-EM structure; LdcI–RavA complex, 11 Å; 1.26 mg/ml LdcI mixed with 0.94 mg/ml RavA, 15 min at room temperature, 25 mM Mes pH 6.5, 200 mM NaCl, 3 mM ADP, 0.8 mM PLP, 1 mM DTT; no cross-linking; D5 symmetry imposed; both purified

AAA+ ATPase RavA (from UniProt P31473 1-498) (enzyme)
binding: binds
